These are yes or no findings as the source states them, for the method shown. Binding seen in cells or lysates may run through a third protein. A yes stands for co-enrichment or nearness to the bait. Other partners may have been found.
Biological target: Flag-wild type (wt) FANCD2 (UniProt Q9BXW9)
Test: affinity purification with mass spectrometry; Flag-IP eluates of CRL-1790 cells transfected with Flag-wtFANCD2 or Flag-mtFANCD2, 8-16% gradient SDS-PAGE, extra band slightly larger than 100 kDa excised, trypsin, MS/MS

Protein sequences, listed by entry. Tags and fused reporters are not part of them.
UniProt Q9BXW9: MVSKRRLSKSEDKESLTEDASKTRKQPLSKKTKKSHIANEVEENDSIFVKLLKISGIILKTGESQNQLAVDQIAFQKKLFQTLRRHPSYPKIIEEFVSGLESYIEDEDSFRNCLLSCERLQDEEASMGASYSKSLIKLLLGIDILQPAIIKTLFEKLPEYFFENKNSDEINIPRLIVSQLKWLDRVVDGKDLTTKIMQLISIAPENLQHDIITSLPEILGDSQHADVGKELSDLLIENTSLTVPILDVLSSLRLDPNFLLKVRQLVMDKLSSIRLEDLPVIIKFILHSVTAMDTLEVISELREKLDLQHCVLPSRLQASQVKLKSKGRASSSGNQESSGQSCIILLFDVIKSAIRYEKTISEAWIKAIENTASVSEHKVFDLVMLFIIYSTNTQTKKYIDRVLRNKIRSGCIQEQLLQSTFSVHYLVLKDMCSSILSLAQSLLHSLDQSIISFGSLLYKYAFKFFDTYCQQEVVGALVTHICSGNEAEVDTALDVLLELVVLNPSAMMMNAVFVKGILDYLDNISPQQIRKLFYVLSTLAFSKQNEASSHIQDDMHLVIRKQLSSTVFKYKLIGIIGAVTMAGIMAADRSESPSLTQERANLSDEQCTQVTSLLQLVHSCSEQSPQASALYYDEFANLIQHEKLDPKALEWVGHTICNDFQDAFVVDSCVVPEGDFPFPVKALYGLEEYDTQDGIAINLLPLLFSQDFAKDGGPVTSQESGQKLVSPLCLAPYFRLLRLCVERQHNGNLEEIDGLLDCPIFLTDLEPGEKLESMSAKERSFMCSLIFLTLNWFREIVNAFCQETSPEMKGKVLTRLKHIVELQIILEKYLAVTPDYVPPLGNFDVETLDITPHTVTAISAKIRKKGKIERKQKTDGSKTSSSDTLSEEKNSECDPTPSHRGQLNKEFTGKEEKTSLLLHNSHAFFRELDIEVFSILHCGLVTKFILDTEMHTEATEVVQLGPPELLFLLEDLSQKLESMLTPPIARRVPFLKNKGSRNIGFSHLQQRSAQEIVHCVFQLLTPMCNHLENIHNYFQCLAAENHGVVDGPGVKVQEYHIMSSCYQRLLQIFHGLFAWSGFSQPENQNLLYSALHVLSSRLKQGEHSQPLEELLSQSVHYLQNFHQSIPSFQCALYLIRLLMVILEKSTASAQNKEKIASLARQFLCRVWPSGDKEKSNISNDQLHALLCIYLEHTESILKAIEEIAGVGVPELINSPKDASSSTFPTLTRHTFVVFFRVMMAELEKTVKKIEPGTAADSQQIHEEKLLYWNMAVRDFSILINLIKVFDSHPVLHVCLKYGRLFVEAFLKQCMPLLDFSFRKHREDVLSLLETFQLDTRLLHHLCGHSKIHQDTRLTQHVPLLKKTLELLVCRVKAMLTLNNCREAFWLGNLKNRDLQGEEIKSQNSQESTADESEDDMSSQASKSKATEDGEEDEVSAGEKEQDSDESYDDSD

binding: binds
B1: endogenous MCM3 (protein, UniProt P25205 1-808)
chain: MAGTVVLDDVELREAQRDYLDFLDDEEDQGIYQSKVRELISDNQYRLIVNVNDLRRKNEKRANRLLNNAFEELVAFQRALKDFVASIDATYAKQYEEFYVGLEGSFGSKHVSPRTLTSCFLSCVVCVEGIVTKCSLVRPKVVRSVHYCPATKKTIERRYSDLTTLVAFPSSSVYPTKDEENNPLETEYGLSVYKDHQTITIQEMPEKAPAGQLPRSVDVILDDDLVDKAKPGDRVQVVGTYRCLPGKKGGYTSGTFRTVLIACNVKQMSKDAQPSFSAEDIAKIKKFSKTRSKDIFDQLAKSLAPSIHGHDYVKKAILCLLLGGVERDLENGSHIRGDINILLIGDPSVAKSQLLRYVLCTAPRAIPTTGRGSSGVGLTAAVTTDQETGERRLEAGAMVLADRGVVCIDEFDKMSDMDRTAIHEVMEQGRVTIAKAGIHARLNARCSVLAAANPVYGRYDQYKTPMENIGLQDSLLSRFDLLFIMLDQMDPEQDREISDHVLRMHRYRAPGEQDGDAMPLGSAVDILATDDPNFSQEDQQDTQIYEKHDNLLHGTKKKKEKMVSAAFMKKYIHVAKIIKPVLTQESATYIAEEYSRLRSQDSMSSDTARTSPVTARTLETLIRLATAHAKARMSKTVDLQDAEEAVELVQYAYFKKVLEKEKKRKKRSEDESETEDEEEKSQEDQEQKRKRRKTRQPDAKDGDSYDPYDFSDTEEEMPQVHTPKTADSQETKESQKVELSESRLKAFKVALLDVFREAHAQSIGMNRLTESINRDSEEPFSSVEIQAALSKMQDDNQVMVSEGIIFLI
